Results from EP0444898A1 (MERCK & CO. INC., priority 1990, dated 1991).

Test: general procedure: Boc solid-phase peptide synthesis; chloromethylated resin (Merrifield resin); Boc-L-Pro-O-(PAM)-resin; BOP reagent/DIEA for some couplings; acid chloride coupling
Conditions: for isolated mass: scale 1 mmole
[1] = late stage modification step, HPLC (Method G)
[2] = late stage modification step, HPLC (Method G), head-to-tail ring
[3] = late stage modification step, head-to-tail ring
[4] = whole synthesis, HPLC (Method G), scale of the general procedure 1 mmole
[5] = whole synthesis, HPLC (Method G), scale of the general procedure 1 mmole, head-to-tail ring
[6] = whole synthesis, 210 nM, scale of the general procedure 1 mmole
[7] = whole synthesis, scale of the general procedure 1 mmole
[8] = whole synthesis, 214 nM, scale of the general procedure 1 mmole, head-to-tail ring
[9] = whole synthesis, 214 nM, head-to-tail ring

C-[D,L-meta-Tyrosyl-L-isoleucyl-D-pipecolyl-L-lysyl-D-(N-methyl)phenylalanyl-L-prolyl]
step yield (late stage modification step): 49% | final HPLC purity [1]: 99%

C-[D-2-Napthylalanyl-L-isoleucyl-D-pipecolyl-L-lysyl-D-(N-methyl)phenylalanyl-L-prolyl]
crude HPLC purity [2]: 99% | step yield [3]: 98%

C-[D-(O-Benzyl)Tyrosyl-L-isoleucyl-D-pipecolyl-L-lysyl-D-(N-methyl)phenylalanyl-L-prolyl]
step yield (late stage modification step): 95% | crude HPLC purity [1]: 99%

C-[D-Phenylalanyl-L-isoleucyl-D-Δ-piperazyl-L-(N^ε-t-Butyloxycarbonyl)-Lysl-M-Me-D-phenylalanyl-L-prolyl]
final HPLC purity [4]: >94%

C-[D-Tryptophanyl-L-isoleucinyl-D-pipecolyl-L-piperazin-2-yl (4-t-butylacetyl)-D-(N^α-Me)phenylalanyl-L-prolyl]
final HPLC purity (late stage modification step, 210 nM): >98%

C-[D-Tyrosyl-L-isoleucyl-D-pipecolyl-L-lysyl-D-(N-methyl)phenylalanyl-L-prolyl]
step yield (late stage modification step): 61% | final HPLC purity [1]: 99%

C-[D-tryptophanyl-L-isolelucyl-D-pipecolyl-L-pipecolyl-D-histidyl-L-prolyl]
final HPLC purity [5]: purity 99% | isolated mass (whole synthesis, head-to-tail ring): 257 mg | isolated yield (whole synthesis, scale of the general procedure 1 mmole, head-to-tail ring): 33%

C[D-Phenylalanyl-L-isoleucyl-D-prolyl-L-prolyl-D-phenylalanyl-L-prolyl]
final HPLC purity [6]: 99%

Cyclo(D-Phe-L-Ile-D-Pip-L-Pip-D-Lys-L-Pro]
step yield (late stage modification step): 67% | final HPLC purity [1]: 99%

Cyclo[D-Phe-L-Ile-D-Pip-L-(Cbz)Lys-D-His-L-Pro]
final HPLC purity [4]: 99% | isolated mass (whole synthesis, TFA salt): 186 mg | isolated yield (whole synthesis, scale of the general procedure 1 mmole, TFA salt): 11%

Cyclo[D-Phe-L-Ile-D-Pip-L-Pip-(p-nitro)-Phe-L-Pro]
final HPLC purity [4]: 98% | isolated mass (whole synthesis): 800 mg | isolated yield [7]: 70%

Cyclo[D-Phe-L-Ile-D-Pip-L-Pip-D-(N^αMe)Phe-L-Pro]
cyclisation yield (cyclisation step): 70%

Cyclo[D-Phe-L-lie-D-Pip-L-Lys-D-His-L-Pro]
step yield (late stage modification step): 50% | final HPLC purity [1]: 97.5%

Cyclo[D-Phe-L-lie-D-Pip-L-Pip-D-(N^αMe)Tyr-L-Pro]
final HPLC purity [1]: 97.5%

Cyclo[D-Trp-L-HomoPhe-D-Pip-L-Pip-D-(NaMe)-Phe-L-Pro]
final HPLC purity [4]: 99% | isolated mass (whole synthesis): 520 mg | isolated yield [7]: 63%

Cyclo[D-Trp-L-Ile-D-Pip-L-(Cbz)Lys-D-(N^αMe)Phe-L-Pro]
final HPLC purity [4]: 99% | isolated mass (whole synthesis): 480 mg | isolated yield [7]: 49%

Cyclo[D-Trp-L-Ile-D-Pip-L-(Cbz)Lys-D-His-L-Pro]
final HPLC purity [4]: 99% | isolated mass (whole synthesis): 350 mg | isolated yield [7]: 30%

Cyclo[D-Trp-L-Ile-D-Pip-L-(Cbz)Om-D-Trp-L-Pro]
final HPLC purity [4]: 99% | isolated mass (whole synthesis): 370 mg | isolated yield [7]: 39%

Cyclo[D-Trp-L-Ile-D-Pip-L-Lys-D-Trp-L-Pro]
step yield (late stage modification step): 33% | final HPLC purity [1]: 99%

Cyclo[D-Trp-L-Ile-D-Pip-L-Pip-D-(N^αMe-O-Bzl)-Tyr-L-Pro]
final HPLC purity [4]: 99% | isolated mass (whole synthesis): 350 mg | isolated yield [7]: 35%

Cyclo[D-Trp-L-lie-D-Pip-L-Lys-D-His-L-Pro]
step yield (late stage modification step): 32% | final HPLC purity [1]: 99%

Cyclo[D-phenylalanyl-L-isoleucyl-D-pipecolyl-L-pipecolyl-D-([N,N-dimethylglycyl]p-amino)phenyl-alanyl-L-pr olyl]
step yield (late stage modification step): 47% | final HPLC purity [1]: 99%

Cyclo[D-phenylalanyl-L-isoleucyl-D-pipecolyl-L-pipecolyl-D-ornithyl-L-prolyl]
step yield (late stage modification step): 38% | purity (crude or final not stated) [1]: 99%

Cyclo[D-tryptophanyl-L-isoleucyl-D-pipecolyl-L-pipecolyl-D-[im-(CH3)2]^+histidyl-L-prolyl] trifluoro-acetate
step yield (late stage modification step): 42% | final HPLC purity [1]: purity 99%

Cydo[D-Phe-L-lle-D-Pip-L-Pip-D-(p-amino)-Phe-L-Pro]
final HPLC purity [2]: 97.5% | step yield [3]: 92%

Cydo[D-Trp-L-Ile-D-Pip-L-(Cbz)Orn-D-(N^αMe)-Phe-L-Pro]
final HPLC purity [4]: 99% | isolated mass (whole synthesis): 500 mg | isolated yield [7]: 54%

Cydo[D-Trp-L-Ile-D-Pip-L-Orn-D-(N^αMe)Phe-L-Pro]
step yield (late stage modification step): 41% | final HPLC purity [1]: 99%

Cydo[D-Trp-L-lIe-D-Pip-L-Orn-D-Trp-L-Pro]
final HPLC purity [2]: 99% | step yield [3]: 64%

Fmoc-L-isoleucyl-D-pipecolyl-L-pipecolyl-N-methyl-D-phenylalanyl-benzyl ester
final HPLC purity [4]: 95.2% pure

c-[(O-Ethyl)-D-tyrosyl-L-isoleucyl-D-pipecolyl-L-pipecolyl-N-methyl-D-phenylalanyl-L-prolyl]
final HPLC purity [5]: 93.8% pure

c-[D,L-(1-Me)Trp-L-Ile-D-Pip-L-Pip-D-His-L-Pro] higher Rf isomer
final HPLC purity [4]: 100%

c-[D,L-(5-F)Trp-L-Ile-D-Pip-L-Pip-D-His-L-Pro] higher Rf isomer
final HPLC purity [4]: 90%

c-[D,L-(5-F)Trp-L-Ile-D-Pip-L-Pip-D-His-L-Pro] lower Rf isomer
final HPLC purity [4]: 94%

c-[D,L-(5-Me)Trp-L-Ile-D-Pip-L-Pip-D-His-L-Pro] higher Rf isomer
final HPLC purity [4]: 98%

c-[D,L-(5-Me)Trp-L-Ile-D-Pip-L-Pip-D-His-L-Pro] lower Rf isomer
final HPLC purity [4]: 98%

c-[D-2-Nal-L-Ile-D-Pip-D-Pipe-D-His-L-Pro]
step yield (late stage modification step): 53% | final HPLC purity [1]: 95%

c-[D-2-Naphthylalanyl-L-isoleucinyl-D-pipecolyl-L-piperazin-2-yl-D-(N^α-methyl)phenylalanyl-L-prolyl]
final HPLC purity [1]: >97%

c-[D-2-Naphthylalanyl-L-isoleucyl-D-pipecolyl-L-piperazin-2-yl-D-histidyl-L-prolyl]
step yield (late stage modification step): 38% | final HPLC purity [1]: 99%

c-[D-2-Napthylalanyl-L-isoleucyl-D-pipecolyl-L-[N-(1-methyl-quinuclidinium-3-yl-carbonyl)]lysyl-D-(N-methyl)phenylalanyl-L-prolyl]
step yield (late stage modification step): 48% | final HPLC purity [1]: 99%

c-[D-(O-Ethyl)-tyrosyl-D-isoleucyl-D-glutamyl-L-asparagyl-D-phenylalanyl-L-prolyl]
final HPLC purity [5]: 94.0% pure

c-[D-(O-Ethyl)-tyrosyl-L-isoleucyl-D-(O-tert-butyl)-threonyl-L-asparapyl-D-phenylalanyl-L-prolyl]
final HPLC purity [5]: 98.6% pure

c-[D-(O-Methyl)Tyrosyl-L-isoleucyl-D-pipecolyl-L-(N-t-butyloxycarbonyl)lysyl-D-(N-methyl)phenylalanyl-L-prolyl]
step yield (late stage modification step): 85% | crude HPLC purity [1]: 95%

c-[D-(O-Methyl)Tyrosyl-L-isoleucyl-D-pipecolyl-L-lysyl-D-(N-methyl)phenylalanyl-L-prolyl]
step yield (late stage modification step): 50% | final HPLC purity [1]: 99%

c-[D-Cyclohexylalanyl-L-isoleucyl-D-prolyl-D-phenylalanyl-L-prolyl]
final HPLC purity [6]: 99%

c-[D-Homophenylalanyl-L-isoleucyl-D-pipecolyl-L-pipecolyl-N-Me-D-phenylalanyl-L-prolyl]
final HPLC purity (whole synthesis, 210 nM, scale of the general procedure 1 mmole, head-to-tail ring): >95.5%

c-[D-Phenylafanyt-L-isoleucyl-D-prolyl-L-prolyl-D-α-glutaminyl-L-prolyl]
final HPLC purity [8]: 99%

c-[D-Phenylaianyl-L-isoleucyl-D-pipecolyi-L-asparagyl-N-methyl-D-phenylaianyl-L-prolyl]
final HPLC purity [2]: 94.2% pure

c-[D-Phenylaianyl-L-isoleucyl-D-prolyl-L-pipecolyl-N-methyl-D-phenylalanyl-L-prolyl]
final HPLC purity [5]: 98.4% pure

c-[D-Phenylalany-L-isoleucinyl-D-pipecolyl-L-piperazin-2-yl-D-(N^lm-methyl)histidinyl-L-prolyl]
final HPLC purity [1]: >97%

c-[D-Phenylalanyl-L-(O-benzyl)-threoninyl-D-prolyl-L-prolyl-D-phenylalanyl-L-prolyl]
final HPLC purity [8]: 99%

c-[D-Phenylalanyl-L-(O-tert-butyl)-threonyl-D-pipecolyl-L-pipecolyl-D-N-methy!-phenylalany!-L-prolyl]
final HPLC purity [5]: 98.5% pure

c-[D-Phenylalanyl-L-cyclohexylalanyl-D-prolyl-L-prolyl-D-phenylalanyl-L-prolyl]
final HPLC purity [6]: 99%

c-[D-Phenylalanyl-L-cyclohexylglycyl-D-prolyl-L-prolyl-D-phenylalanyl-L-prolyl]
final HPLC purity (whole synthesis, 214 nM, scale of the general procedure 1 mmole): 99%

c-[D-Phenylalanyl-L-isoleucinyl-D-pipecolyl-D-piperazin-2-yl(4-Cbz)-D-histidinyl-L-prolyl]
final HPLC purity [9]: >95%

c-[D-Phenylalanyl-L-isoleucinyl-D-pipecolyl-D-piperazin-2-yl(4-Cbz)-D-phenylalanyl-L-prolyl]
final HPLC purity [8]: 97%

c-[D-Phenylalanyl-L-isoleucinyl-D-pipecolyl-D-piperazin-2-yl-D-phenylalanyl-L-prolyl]
final HPLC purity (late stage modification step, 214 nM, head-to-tail ring): >99%

c-[D-Phenylalanyl-L-isoleucinyl-D-pipecolyl-L-piperazin-2-yl(4-Cbz)-D-phenylalanyl-L-prolyl]
final HPLC purity [8]: >96%

c-[D-Phenylalanyl-L-isoleucinyl-D-pipecolyl-L-piperazin-2-yl(4Cbz)-D-histidinyl-L-prolyl]
final HPLC purity [9]: >99%
